These are yes or no findings as the source states them, for the method shown. Binding seen in cells or lysates may run through a third protein.
Target: T1, Coiled-coil alpha-helical rod protein 1 (HCR), endogenous in HeLa (human (endogenous in HeLa)) (UniProt Q8TD31)
T1 sequence: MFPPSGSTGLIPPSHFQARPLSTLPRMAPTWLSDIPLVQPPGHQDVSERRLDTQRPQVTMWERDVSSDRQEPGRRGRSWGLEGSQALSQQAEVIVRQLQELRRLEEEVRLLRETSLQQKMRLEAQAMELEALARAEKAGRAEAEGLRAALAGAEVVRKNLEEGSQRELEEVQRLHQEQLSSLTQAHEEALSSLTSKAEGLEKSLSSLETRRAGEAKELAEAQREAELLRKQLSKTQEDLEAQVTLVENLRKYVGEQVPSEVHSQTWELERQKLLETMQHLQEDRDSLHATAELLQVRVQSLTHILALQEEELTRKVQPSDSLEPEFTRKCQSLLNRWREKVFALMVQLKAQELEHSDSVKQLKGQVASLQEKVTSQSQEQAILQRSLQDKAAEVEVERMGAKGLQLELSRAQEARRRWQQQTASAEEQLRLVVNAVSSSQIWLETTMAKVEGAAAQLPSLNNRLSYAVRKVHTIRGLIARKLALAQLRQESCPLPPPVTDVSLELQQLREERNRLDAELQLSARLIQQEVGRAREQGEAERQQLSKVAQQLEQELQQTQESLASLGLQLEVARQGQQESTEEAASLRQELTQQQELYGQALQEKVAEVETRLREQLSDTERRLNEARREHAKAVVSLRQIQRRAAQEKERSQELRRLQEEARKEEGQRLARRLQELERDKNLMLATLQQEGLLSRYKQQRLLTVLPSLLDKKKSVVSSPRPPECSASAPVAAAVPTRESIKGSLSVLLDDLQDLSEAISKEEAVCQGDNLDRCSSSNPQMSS
Assay: co-IP; endogenous proteins in HeLa cell lysates (50 mM Tris, 150 mM NaCl, 0.1% NP40); antibody to one partner or control rabbit IgG, protein A and protein G beads, 4 °C; western blot

## dynein light chain 8 (LC8), endogenous in HeLa (human (endogenous in HeLa))
  binding: no binding
